Laboratory results published in patent US20030166531A1, “Methods for modulating an immune response by modulating the interaction between CTLA4 and PP2A” (Genetics Institute, Inc., priority 2001, published 2003).
Results are given in words; binding and its absence hold for the method and conditions named. For some assays here: Binding seen in cells or lysates may run through a third protein. Some entries that bind do so weakly or less than the wild type.

Chains of the proteins cited; added tags and fusions are not shown. Residues count along the entry.
UniProt P16410, residues 36-223: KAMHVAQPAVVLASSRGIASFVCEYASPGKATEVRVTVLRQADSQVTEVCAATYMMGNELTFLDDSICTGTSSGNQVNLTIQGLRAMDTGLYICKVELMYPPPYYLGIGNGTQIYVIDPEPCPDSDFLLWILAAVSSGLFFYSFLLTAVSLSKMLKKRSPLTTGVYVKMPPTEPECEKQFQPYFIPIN
UniProt P10747, residues 19-220: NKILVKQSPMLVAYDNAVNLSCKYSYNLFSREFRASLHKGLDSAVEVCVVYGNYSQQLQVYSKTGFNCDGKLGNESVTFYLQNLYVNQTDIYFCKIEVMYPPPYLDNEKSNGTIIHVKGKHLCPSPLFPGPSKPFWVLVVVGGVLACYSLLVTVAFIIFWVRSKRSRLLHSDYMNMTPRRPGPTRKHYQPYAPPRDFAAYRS
UniProt P30153, residues 2-589: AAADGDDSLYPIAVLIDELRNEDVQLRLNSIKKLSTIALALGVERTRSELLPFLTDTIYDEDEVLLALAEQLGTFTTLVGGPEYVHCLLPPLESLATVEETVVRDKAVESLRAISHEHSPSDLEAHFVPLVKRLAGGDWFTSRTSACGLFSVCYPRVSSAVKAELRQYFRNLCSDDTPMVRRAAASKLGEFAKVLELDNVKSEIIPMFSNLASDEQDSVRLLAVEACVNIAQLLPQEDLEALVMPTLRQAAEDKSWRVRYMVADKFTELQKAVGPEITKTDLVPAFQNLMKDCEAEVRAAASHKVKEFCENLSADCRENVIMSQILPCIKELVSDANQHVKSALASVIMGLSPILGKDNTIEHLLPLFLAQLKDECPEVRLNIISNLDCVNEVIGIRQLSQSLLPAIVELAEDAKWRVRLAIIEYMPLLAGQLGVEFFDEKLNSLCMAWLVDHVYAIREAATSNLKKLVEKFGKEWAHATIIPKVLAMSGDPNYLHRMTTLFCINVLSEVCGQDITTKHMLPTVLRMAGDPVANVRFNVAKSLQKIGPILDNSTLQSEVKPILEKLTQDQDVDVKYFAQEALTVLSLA

Tests used:
[1] = biological target: wild type CTLA4 expressed in doxycycline-induced transfected Jurkat T cells (UniProt P16410); test: co-immunoprecipitation from Jurkat cell lysates
[2] = biological target: wild type CTLA4 expressed in doxycycline-induced transfected Jurkat T cells (UniProt P16410); test: co-immunoprecipitation from Jurkat cells, time course after SEE and APCs
[3] = biological target: wild type CTLA4 expressed in doxycycline-induced transfected Jurkat T cells (UniProt P16410); test: immunoprecipitation of PP2AA from transfected Jurkat cell lysates, blot for CTLA4
[4] = biological target: CD28 of parental Jurkat cells (E6.1 cells) (UniProt P10747); test: pull-down of CD28 with B7.2Ig from parental Jurkat (E6.1) lysates, blot with anti-PP2AA
[5] = biological target: wild type CTLA4 expressed in doxycycline-induced transfected Jurkat T cells (UniProt P16410); test: immunoprecipitation of PP2AA from Jurkat lysates normalized for total CTLA4, blot for CTLA4

Measured: binding

endogenous PP2AA (65 kD regulatory subunit of PP2A) of Jurkat T cells (from UniProt P30153 2-589)
binds: all assays above
